Where a name gives a salt, the structure may show the parent alone. This is one part of the list. Most values come without repeats; read them as rough.
These molecules were tested on hsa-miR-132-3p (assay: miR-132-3p level in NGN2-iNs after compound treatment (TMM-normalised, ComBat batch-corrected) (batch-corrected normalised expression (arbitrary units)); higher = higher miR-132-3p expression). Conditions: 10 µM; 24 h; human iPSC-derived NGN2 neurons (BR43).
With O=c1c(-c2ccc(O)cc2)coc2c([C@@H]3O[C@H](CO)[C@@H](O)[C@H](O)[C@H]3O)c(O)ccc12 [Puerarin] the “miR-132-3p level in NGN2-iNs” value was -0.584.
In the case of CNC(=O)c1cc(COc2nnc(Nc3ccc(Cl)cc3)c3ccoc23)ccn1 [Telatinib], the “miR-132-3p level in NGN2-iNs” value is reported as -0.0823.
For CCCc1nc(C)c2c(=O)nc(-c3cc(S(=O)(=O)N4CCN(CC)CC4)ccc3OCC)[nH]n12 [Vardenafil HCl Trihydrate], the “miR-132-3p level in NGN2-iNs” value was -0.731.
With O=C(O)/C=C/c1ccc(Cn2ccnc2)cc1 [Ozagrel HCl] the “miR-132-3p level in NGN2-iNs” value was 0.202.
O=C(O)/C=C/c1ccc(Cn2ccnc2)cc1 [Ozagrel] was tested, and the “miR-132-3p level in NGN2-iNs” value was 0.172.
In the case of COc1cc2nccc(Oc3ccc(NC(=O)C4(C(=O)Nc5ccc(F)cc5)CC4)cc3)c2cc1OC [Cabozantinib malate (XL184)], the “miR-132-3p level in NGN2-iNs” value is reported as -1.49.
For COc1cc2nccc(Oc3ccc(NC(=O)C4(C(=O)Nc5ccc(F)cc5)CC4)cc3)c2cc1OC, the “miR-132-3p level in NGN2-iNs” value was -0.533.
With Cc1c(-c2ccnn2C)cc(C(=O)NCc2ccc(S(C)(=O)=O)cn2)c(=O)n1-c1cccc(C(F)(F)F)c1 [Alvelestat (AZD9668)] the “miR-132-3p level in NGN2-iNs” value was -1.18.
For Nc1ncn([C@@H]2O[C@H](CO)[C@@H](O)[C@H]2O)c(=O)n1 [Azacitidine], the “miR-132-3p level in NGN2-iNs” value was 0.764.
CCCNC(C)C(=O)Nc1ccccc1C (centres undefined) [Prilocaine] was tested, and the “miR-132-3p level in NGN2-iNs” value was -0.951.
For O=C(Nc1ccc(OC(F)(F)F)cc1)c1sccc1NCc1ccnc2ccccc12, the “miR-132-3p level in NGN2-iNs” value was -0.203.
For COc1cc(/C=C/C(=O)N2CCN(CC(=O)N3CCCC3)CC2)cc(OC)c1OC [Cinepazide maleate], the “miR-132-3p level in NGN2-iNs” value was 1.74.
Cn1c(=O)cc(N2CCC[C@@H](N)C2)n(Cc2cc(F)ccc2C#N)c1=O [Trelagliptin] was tested, and the “miR-132-3p level in NGN2-iNs” value was 0.241.
In the case of O=C(c1cccc(Cl)c1F)N1CCN(Cc2cccc(Nc3nccs3)n2)CC1, the “miR-132-3p level in NGN2-iNs” value is reported as -1.05.
For CC(C)[C@H]1C(=O)N[C@@H](CCCNC(=N)N)C(=O)NCC(=O)N[C@@H](CC(=O)O)C(=O)N[C@H](Cc2ccccc2)C(=O)N1C [Cilengitide trifluoroacetate], the “miR-132-3p level in NGN2-iNs” value was -0.0437.
For COc1cc(OC)c2c(=O)[nH]c(-c3cc(C)c(OCCO)c(C)c3)nc2c1 [Apabetalone (RVX-208)], the “miR-132-3p level in NGN2-iNs” value was -0.383.
In the case of CC(C)(C)NC[C@H](O)COc1nsnc1N1CCOCC1 [Timolol Maleate], the “miR-132-3p level in NGN2-iNs” value is reported as -0.422.
In the case of COC1=C(OC)C(=O)C(CCCCCCCCCCO)=C(C)C1=O [Idebenone], the “miR-132-3p level in NGN2-iNs” value is reported as -0.717.
With Cc1nc(NC(=O)N2CCC[C@H]2C(N)=O)sc1-c1csc(C(C)(C)C)n1 the “miR-132-3p level in NGN2-iNs” value was -0.906.
For CCOC(=O)[C@H](CCc1ccccc1)N[C@H]1CCc2ccccc2N(CC(=O)O)C1=O [Benazepril HCl], the “miR-132-3p level in NGN2-iNs” value was -0.0835.
In the case of CC[C@H]1OC(=O)[C@H](C)[C@@H](O[C@H]2C[C@@](C)(OC)[C@@H](O)[C@H](C)O2)[C@H](C)[C@@H](O[C@@H]2O[C@H](C)C[C@H](N(C)C)[C@H]2O)[C@](C)(O)C[C@@H](C)/C(=N\OCOCCOC)[C@H](C)[C@@H](O)[C@]1(C)O [Roxithromycin], the “miR-132-3p level in NGN2-iNs” value is reported as 0.391.
For O=C(NCCS(=O)(=O)c1ccc(C(F)(F)F)cn1)c1ccc(Cl)cc1, the “miR-132-3p level in NGN2-iNs” value was 0.124.
With C=C1CC[C@H](O)C/C1=C/C=C1\CCC[C@]2(C)[C@@H]([C@H](C)CCCC(C)(C)O)CC[C@@H]12 [Calcifediol] the “miR-132-3p level in NGN2-iNs” value was -0.193.
With CC(C)CC(=O)Nc1n[nH]c2c1CN(C(=O)C1CCN(C)CC1)C2(C)C the “miR-132-3p level in NGN2-iNs” value was 0.785.
Nc1nc(Cl)nc2c1ncn2[C@@H]1O[C@H](CO)[C@@H](O)[C@@H]1F [Clofarabine] was tested, and the “miR-132-3p level in NGN2-iNs” value was 0.898.
For CN1CC[C@H](c2c(O)cc(O)c3c(=O)cc(-c4ccccc4Cl)oc23)[C@H](O)C1 [Flavopiridol HCl], the “miR-132-3p level in NGN2-iNs” value was 0.765.
For CC(C)NCC(O)COc1ccc(COCCOC(C)C)cc1 (centres undefined) [Bisoprolol fumarate], the “miR-132-3p level in NGN2-iNs” value was -0.268.
In the case of O=c1cc(-c2ccc(O)cc2)oc2cc(O)cc(O)c12 [Apigenin], the “miR-132-3p level in NGN2-iNs” value is reported as -0.0356.
For C[C@@H](N)[C@H]1CC[C@H](C(=O)Nc2ccncc2)CC1, the “miR-132-3p level in NGN2-iNs” value was 0.714.
With NC(CO)(CO)CO [Trometamol] the “miR-132-3p level in NGN2-iNs” value was 1.33.
With O=c1ncccn1[C@@H]1O[C@H](CO)[C@@H](O)[C@H]1O the “miR-132-3p level in NGN2-iNs” value was -1.21.
For O=C(CCCCCCNC(=O)c1cnc(N(c2ccccc2)c2ccccc2)nc1)NO [Ricolinostat (ACY-1215)], the “miR-132-3p level in NGN2-iNs” value was 2.43.
For CC(C)n1nc(-c2cc3cc(O)ccc3[nH]2)c2c(N)ncnc21 [Torkinib (PP242)], the “miR-132-3p level in NGN2-iNs” value was -1.32.
For COc1nc(C)nc(Cl)c1NC1=NCCN1 [Moxonidine], the “miR-132-3p level in NGN2-iNs” value was 0.587.
For O=C(Nc1cc(C(F)(F)F)ccc1N1CCCCC1)c1ccncc1, the “miR-132-3p level in NGN2-iNs” value was 0.22.
In the case of Cc1cc(Cn2cnc3c2CC(C(=O)O)N(C(=O)C(c2ccccc2)c2ccccc2)C3)ccc1N(C)C (centres undefined), the “miR-132-3p level in NGN2-iNs” value is reported as 1.07.
For Cc1ccc(S(=O)(=O)NC(=O)NN2CC3CCCC3C2)cc1 (centres undefined) [Gliclazide], the “miR-132-3p level in NGN2-iNs” value was -0.607.
For COc1ccc2cc(CCC(C)=O)ccc2c1 [Nabumetone], the “miR-132-3p level in NGN2-iNs” value was -0.678.
For C[C@H]1[C@@H](O)O[C@@H]2O[C@@]3(C)CC[C@H]4[C@H](C)CC[C@@H]1[C@@]24OO3 [Dihydroartemisinin (DHA)], the “miR-132-3p level in NGN2-iNs” value was -0.336.
In the case of COc1ccc(-c2oc3c(CC=C(C)C)c(O[C@@H]4O[C@H](CO)[C@@H](O)[C@H](O)[C@H]4O)cc(O)c3c(=O)c2O[C@@H]2O[C@@H](C)[C@H](O)[C@@H](O)[C@H]2O)cc1 [Icariin], the “miR-132-3p level in NGN2-iNs” value is reported as -0.527.
In the case of CCn1cc(C(=O)O)c(=O)c2ccc(C)nc21 [Nalidixic acid], the “miR-132-3p level in NGN2-iNs” value is reported as -0.537.
For CN(C)c1ccc(C(=O)NCCCCCCC(=O)NO)cc1, the “miR-132-3p level in NGN2-iNs” value was 0.368.
In the case of CCO[C@@H]1OC(=O)C[C@@H]1NC(=O)[C@@H]1CCCN1C(=O)[C@@H](NC(=O)c1ccc(N)c(Cl)c1)C(C)(C)C [Belnacasan (VX-765)], the “miR-132-3p level in NGN2-iNs” value is reported as 0.356.
O=C(CCCN1CC=C(n2c(=O)[nH]c3ccccc32)CC1)c1ccc(F)cc1 [Droperidol] was tested, and the “miR-132-3p level in NGN2-iNs” value was 0.509.
For Cc1ncc([N+](=O)[O-])n1CCO [Metronidazole], the “miR-132-3p level in NGN2-iNs” value was -0.047.
With OC(CCN1CCCCC1)(c1ccccc1)C1CC2C=CC1C2 (centres undefined) [Biperiden HCl] the “miR-132-3p level in NGN2-iNs” value was 0.277.
In the case of CC(=O)O/N=C1\C(=O)N(Cc2cc(Cl)ccc2Cl)c2ccc(Cl)cc21, the “miR-132-3p level in NGN2-iNs” value is reported as 0.343.
CCN(Cc1ccncc1)C(=O)C(CO)c1ccccc1 (centres undefined) [Tropicamide] was tested, and the “miR-132-3p level in NGN2-iNs” value was -0.928.
With Cc1ccc(C(=O)c2cc(O)c(O)c([N+](=O)[O-])c2)cc1 [Tolcapone] the “miR-132-3p level in NGN2-iNs” value was -1.33.

Source: the supplement of paper PMC10663445
